The source of these data is patent US20090265797A1 (PIERRE FABRE MEDICAMENT, published 2009).

The chains behind the UniProt entries cited, without tags or fusion partners. Residues count along the entry.
UniProt P08069, residues 31-1367: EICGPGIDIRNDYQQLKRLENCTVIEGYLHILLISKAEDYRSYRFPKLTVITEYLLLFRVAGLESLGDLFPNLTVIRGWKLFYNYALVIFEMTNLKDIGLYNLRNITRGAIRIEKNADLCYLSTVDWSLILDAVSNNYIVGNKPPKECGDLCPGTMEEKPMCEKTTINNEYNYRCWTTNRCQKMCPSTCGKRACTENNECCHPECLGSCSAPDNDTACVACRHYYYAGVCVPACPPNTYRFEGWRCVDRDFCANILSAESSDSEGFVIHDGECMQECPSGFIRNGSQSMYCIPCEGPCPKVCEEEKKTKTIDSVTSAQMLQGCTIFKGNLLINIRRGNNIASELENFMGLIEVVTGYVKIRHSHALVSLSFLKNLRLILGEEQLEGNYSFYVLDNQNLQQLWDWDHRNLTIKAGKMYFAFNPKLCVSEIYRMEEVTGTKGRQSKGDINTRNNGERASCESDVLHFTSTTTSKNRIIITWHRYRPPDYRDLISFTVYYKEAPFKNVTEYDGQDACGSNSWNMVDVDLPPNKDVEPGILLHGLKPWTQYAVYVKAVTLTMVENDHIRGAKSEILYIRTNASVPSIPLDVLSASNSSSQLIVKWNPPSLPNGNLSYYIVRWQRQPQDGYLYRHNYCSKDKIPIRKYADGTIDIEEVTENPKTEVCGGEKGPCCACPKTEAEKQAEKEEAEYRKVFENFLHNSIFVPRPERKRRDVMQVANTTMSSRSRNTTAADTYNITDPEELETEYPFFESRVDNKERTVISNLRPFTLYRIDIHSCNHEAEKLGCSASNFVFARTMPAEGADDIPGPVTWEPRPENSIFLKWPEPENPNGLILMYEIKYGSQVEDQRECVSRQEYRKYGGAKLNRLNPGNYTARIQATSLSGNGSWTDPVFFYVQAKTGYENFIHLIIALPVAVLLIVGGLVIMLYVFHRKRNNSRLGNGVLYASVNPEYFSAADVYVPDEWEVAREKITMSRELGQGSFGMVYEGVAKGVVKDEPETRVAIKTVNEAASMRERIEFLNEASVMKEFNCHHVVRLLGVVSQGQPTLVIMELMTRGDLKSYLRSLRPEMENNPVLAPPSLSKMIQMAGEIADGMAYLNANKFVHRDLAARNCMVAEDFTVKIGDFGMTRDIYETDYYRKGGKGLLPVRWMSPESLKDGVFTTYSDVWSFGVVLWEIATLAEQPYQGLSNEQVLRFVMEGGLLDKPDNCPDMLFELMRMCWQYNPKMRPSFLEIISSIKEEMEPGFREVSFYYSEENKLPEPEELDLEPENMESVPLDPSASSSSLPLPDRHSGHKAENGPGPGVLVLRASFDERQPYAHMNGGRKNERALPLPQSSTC
UniProt P01344, residues 25-91: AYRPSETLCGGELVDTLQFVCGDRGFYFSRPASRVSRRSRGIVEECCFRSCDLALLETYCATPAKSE

These are yes or no findings as the source states them, for the method shown. Some results given as binding are weak or reduced against the parent protein; the word gives no strength.

Assay [1] has as its target human IGF-IR (hIGF-IR) from membrane lysate of NIH 3T3 cells stably transfected with the human IGF-IR cDNA, immobilized (human) (UniProt P08069). Briefly: competition of 100 pM [125I]-IGF1 binding to immobilized hIGF-IR.
For assay [2] the target is unchanged. Briefly: radioligand competition: unlabeled IGF2 varied against 100 pM [125I]-IGF1 on hIGF-IR captured by mAb 17-69 on Protein A FlashPlate. Background: In a radioligand displacement assay an active substance lowers the binding of a labelled ligand.

Regarding “IGF2 (from UniProt P01344 25-91) (ligand)”, the binding result in assay [1] and in assay [2] was “binds” throughout.
